Several values for one entry are separate records, joined by “and”; a condition that tells them apart may be missing. Equal entries are not always repeated. In all, about 300,000 compounds went through this assay and about 5,400 (1.8%) were called active. The inconclusive results got no clear call from the source; some entries with a clear call stand among them for comparison. The call rests on the fitted dose curve; tested in HEK293 cells. A potency beside an inconclusive call is a rough fit, not a confirmed value. Where a structure was tested more than once in an assay, its records may differ in their call.
experiment: qHTS for inhibitors of binding or entry into cells for Marburg Virus; details: Marburg virus pseudotyped entry inhibition, cell reporter; series mostly up to 37.8 µM
Potency means the concentration at half of the fitted maximal effect.

Q: Which Potency does the source give for `Cc1ccc[n+](CC(=O)Nc2cc(C(F)(F)F)ccc2N2CCOCC2)c1` here?
A: inactive

Q: Which Potency does the source give for `Cc1cccc(-c2nnn(CC/C(N)=N/O)n2)c1` here?
A: inconclusive: 25.9 µM [activator, single point]

Q: For `COCCn1ccc2c(OCC(=O)Nc3cc(OC)ccc3OC)cccc2c1=O`, which Potency is on record?
A: inconclusive: 2.82 µM [inhibitor, partial curve, poor fit]

Q: For `Cc1ccc(CSc2nc3ccncc3n2Cc2nc(-c3ccc(Cl)cc3)oc2C)cc1`, which Potency is on record?
A: inconclusive: 35.5 µM [activator, single point]

Q: Which Potency does the source give for `COc1ccc(-c2nc(CCNC(=O)c3ccco3)cs2)cc1OC` here?
A: inconclusive: 18.4 µM [inhibitor, single point]

Q: For `CSc1ccccc1NC(=O)CN(c1ccccc1)S(=O)(=O)N(C)C`, which Potency is on record?
A: inconclusive: 3.55 µM [inhibitor, full curve]

Q: For `O=C(NCc1cccs1)c1cc2c(s1)CCCC2`, which Potency is on record?
A: inconclusive: 3.26 µM [activator, single point]

Q: Which Potency does the source give for `CCOc1ccc(S(=O)(=O)N(C(C)=O)c2ccc3oc(C)c(C(=O)OC)c3c2)cc1` here?
A: inconclusive: 1.58 µM [inhibitor, full curve, poor fit]

Q: With `Cc1ccc2nc(-c3ccc(NC(=O)CN4C(=O)c5ccccc5C4=O)cc3)sc2c1` as the compound, how does the Potency read?
A: inconclusive: 31.6 µM [inhibitor, single point]

Q: Which Potency does the source give for `O=C(NCc1ccco1)c1nc(-c2ccc(F)cc2)no1` here?
A: inconclusive: 1.58 µM [inhibitor, partial curve, poor fit]

Q: With `CCOc1ccc(OCCn2nnc3ccccc3c2=O)cc1` as the compound, how does the Potency read?
A: inconclusive: 6.31 µM [activator, single point]

Q: With `COc1ccc(NS(=O)(=O)c2cccc(C(=O)N/N=C/c3ccc4c(c3)OCCO4)c2)cc1` as the compound, how does the Potency read?
A: inconclusive: 17.8 µM [inhibitor, single point]

Q: With `C=CCOc1ccccc1/C=c1\sc2nc(=O)c(C)nn2c1=O` as the compound, how does the Potency read?
A: inconclusive: 29.1 µM [activator, partial curve, poor fit]

Q: Which Potency does the source give for `CSc1nc(-c2ccc(Cl)cc2)nn1C(=O)c1ccco1` here?
A: inactive

Q: With `CCc1ccccc1-n1c(SCC(=O)N2CCCC2)nc2[nH]ncc2c1=O` as the compound, how does the Potency read?
A: inactive

Q: For `Cc1cc(-c2ccccc2N)n[nH]1`, which Potency is on record?
A: inactive

Q: Which Potency does the source give for `O=C(Nc1cccnc1)c1cnc2ccccc2n1` here?
A: inconclusive: 15.8 µM [activator, partial curve, poor fit]

Q: With `O=C1NC(=Nc2ccccc2)S/C1=C/c1cccnc1` as the compound, how does the Potency read?
A: inactive

Q: For `O=C(c1ccccc1)C(Nc1cccc([N+](=O)[O-])c1)c1ccccc1` (stereo not given), which Potency is on record?
A: inconclusive: 22.4 µM [inhibitor, single point]

Q: With `CCN=C1SC(C(=O)Nc2cccc(Br)c2)CC(=O)N1CC` (stereo not given) as the compound, how does the Potency read?
A: inconclusive: 35.5 µM [inhibitor, single point]

Q: For `CC1CCCCN1C(=O)CSc1nnc(-c2ccccc2O)o1` (stereo not given), which Potency is on record?
A: inconclusive: 22.4 µM [inhibitor, single point]

Q: For `Cc1ccnc(SCC(=O)Nc2cccc(S(=O)(=O)N3CCOCC3)c2)n1`, which Potency is on record?
A: inconclusive: 6.31 µM [activator, single point]

Q: Which Potency does the source give for `CC1CCC(NC(=O)c2ccc(CS(=O)(=O)Cc3ccccc3F)o2)CC1` (stereo not given) here?
A: inconclusive: 6.31 µM [inhibitor, single point]

Q: With `CCc1ccc(C(O)(c2ccccc2OC)C(CN2CCOCC2)c2ccccc2)cc1` (stereo not given) as the compound, how does the Potency read?
A: inconclusive: 11.2 µM [inhibitor, partial curve, poor fit]

Q: For `COc1ccc(C(C(=O)NCc2ccccc2)N(C(=O)c2snc(C(N)=O)c2N)c2ccccc2OC)cc1` (stereo not given), which Potency is on record?
A: inconclusive: 20 µM [inhibitor, single point]

Q: For `CC(OC(=O)c1cnc2ccccc2n1)c1ccccc1Cl` (stereo not given), which Potency is on record?
A: inconclusive: 25.1 µM [inhibitor, single point]

Q: Which Potency does the source give for `O=C(NCc1ccncc1)NC12CC3CC(CC(C3)C1)C2` here?
A: inconclusive: 35.5 µM [inhibitor, single point]

Q: For `Cc1ccccc1-c1nc(S(=O)(=O)c2ccc(Cl)cc2)c(NCCN2CCOCC2)o1`, which Potency is on record?
A: inconclusive: 29.1 µM [inhibitor, single point]

Q: With `CCOC(=O)CNC(=S)N(Cc1ccccc1F)C1CCCCC1` as the compound, how does the Potency read?
A: inconclusive: 11.2 µM [inhibitor, partial curve, poor fit]

Q: For `C/C(=N\NC(=O)c1ccccc1F)c1ccccn1`, which Potency is on record?
A: inconclusive: 8.91 µM [inhibitor, partial curve, poor fit]

Q: Which Potency does the source give for `CCOC(=O)C(C)Sc1nc2c(cnn2-c2ccc(C)cc2)c(=O)[nH]1` (stereo not given) here?
A: inconclusive: 0.501 µM [inhibitor, full curve, poor fit]

Q: Which Potency does the source give for `O=C1CCCN1CC(CN1CCOCC1)Sc1nnnn1-c1ccccc1` (stereo not given) here?
A: inactive and inconclusive: 35.5 µM [activator, single point]

Q: Which Potency does the source give for `CN1CCN(c2nc(-c3ccc(Cl)cc3)nc3ccccc23)CC1` here?
A: inconclusive: 4.47 µM [activator, single point]

Q: For `COC(=O)C(NC(=O)c1ccccc1Cl)(Nc1ncc(S(=O)(=O)c2ccc([N+](=O)[O-])cc2)s1)C(F)(F)F` (stereo not given), which Potency is on record?
A: inconclusive: 2.91 µM [inhibitor, partial curve]

Q: Which Potency does the source give for `CCC1CCc2sc(C(=O)NCc3ccccn3)cc2C1` (stereo not given) here?
A: inconclusive: 3.16 µM [activator, single point]

Q: Which Potency does the source give for `COc1ccc(C(=O)On2c(-c3ccc(Br)cc3)nc3ccccc3c2=O)cc1` here?
A: inconclusive: 8.91 µM [inhibitor, partial curve, poor fit]

Q: With `O=C(COc1ccc(Cl)cc1)Nc1nc(-c2ccc(S(=O)(=O)N3CCOCC3)cc2)cs1` as the compound, how does the Potency read?
A: inconclusive: 3.66 µM [inhibitor, single point]

Q: For `COCC1=C(C(=O)OC)C(c2ccco2)n2ncnc2N1` (stereo not given), which Potency is on record?
A: inconclusive: 0.1 µM [inhibitor, full curve, poor fit]

Q: With `COc1cccc(NC(=O)c2nnn(Cc3cccc(C(F)(F)F)c3)c2N)c1` as the compound, how does the Potency read?
A: inconclusive: 5.62 µM [inhibitor, single point]
